Laboratory results: PubChem BioAssay AID493014 (National Center for Advancing Translational Sciences (NCATS), 2011)
Some of the results follow. Shown are side measurements of this screen, not its main read-out; they come without a call. Compounds called inactive in the main read-out are mostly missing here. Words in brackets tell the shape of the fitted curve; partial curves, single points and poor fits give uncertain potencies.

Assay: qHTS Assay to Find Inhibitors of Chronic Active B-Cell Receptor Signaling
Settings: ABC-DLBCL IkBa-CBG/CBR reporter, luminescence ratio (green luciferase fused to IkBa over red control in TMD8 lymphoma cells), 4 h
How it was run: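 TMD8 human ABC-DLBCL cells with doxycycline-inducible IκBα–green luciferase fusion and unfused red luciferase, in 0.5% FBS medium; compounds up to 46 uM, 4 h at 37C. Green/red luminescence ratio, filter-overlap corrected, fitted to concentration-response curves.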

[1] = measured here: CBR red luminescence, cell number
[2] = measured here: IkBa-CBG green luminescence

SMILES	AC50 [1]	AC50 [2]
COc1ccccc1C(NC(C)=O)c1cc(Cl)c2cccnc2c1O (stereo not drawn)	35.5 µM [falling, single point]	
O=C1CCN(CCc2ccccc2)CCN1CCSc1ccc(Br)cc1	15.8 µM [falling, partial curve, poor fit]	
CCOC(=O)c1c(C)[nH]c(C=O)c1Cc1cccc(Cl)c1	18.4 µM [falling, single point]	
COc1ccc(C(=O)N2CCc3ccc(NC(=O)c4ccccn4)cc3C2)cc1F	35.5 µM [falling, single point]	
Clc1ccc(OCCSc2ncccn2)cc1	23.1 µM [rising, single point]	
N#Cc1nc(COc2cccc(Cl)c2)oc1NCc1ccco1	35.5 µM [falling, single point]	
O=C(c1ccc(Br)s1)N1CCc2ccccc2C1	0.562 µM [rising, partial curve, poor fit]	
Cc1ccc(NC(=O)c2ccc(CNS(=O)(=O)c3cccc(C(F)(F)F)c3)cc2)cc1	3.66 µM [rising, single point]	
COc1ccc(OC)c(N/C=C2/CCCCC2=O)c1	8.2 µM [falling, partial curve, poor fit]	
C[C@H]1CN=C(Nc2ccccc2)N1CCC1CCCCC1	4.47 µM [falling, partial curve, poor fit]	
COC(=O)c1ccc(CSc2nnc(-c3ccc4c(c3)OCO4)n2-c2ccccc2)o1	29.1 µM [falling, single point]	
Cc1nc2ccc(C(=O)Nc3cccc([N+](=O)[O-])c3)cc2s1	2.51 µM [rising, full curve, poor fit]	
CCCCOc1ccc(N(CC(=O)NCC2CCCO2)C(=O)CCC(=O)Nc2nccs2)cc1 (stereo not drawn)	11.2 µM [rising, partial curve, poor fit]	
CCOc1ccc(N2C(=O)c3ccccc3NC2(C)CC)cc1 (stereo not drawn)	9.2 µM [falling, partial curve]	
CC(C(=O)NCCCc1ccccc1)c1ccc([N+](=O)[O-])cc1 (stereo not drawn)	1.58 µM [falling, partial curve, poor fit]	
CCOC(=O)c1cnn(-c2ccc(C(C)C)cc2)c1NC(=O)C1CCC1	3.55 µM [rising, partial curve]	
c1ccc2c(c1)CCN(c1ncnc3c1[nH]c1ccccc13)C2	14.6 µM [falling, single point]	
Cc1cc(NC(=S)N(CCN2CCCCC2)Cc2ccco2)ccc1Cl	25.1 µM [falling, single point]	
O=C(CC(Sc1ccc(Br)cc1)C(=O)O)c1ccc(F)cc1 (stereo not drawn)	17.8 µM [falling, single point]	
Nc1ccc(O)cc1C(=O)OCC(=O)c1ccc(C2CCCCC2)cc1	29.1 µM [rising, single point]	
CCC(C)NC(=O)c1cc(C)no1 (stereo not drawn)	29.1 µM [falling, single point]	32.6 µM [rising, partial curve, poor fit]

SMILES	AC50 [1]	AC50 [2]
Oc1ccc(/C=N/n2cnn(Cc3ccccc3Cl)c2=S)c(O)c1	20.6 µM [falling, single point]	
Cn1cc(CN2CCC(C(=O)N3CCCC3)CC2)c(-c2ccccc2F)n1	7.94 µM [rising, partial curve, poor fit]	
CCOCCN1CCN(c2c3c(nc4cc(-c5ccc(F)cc5)nn24)CCC3)CC1	17.8 µM [rising, partial curve, poor fit]	
COc1ccc2cnn(-c3ccc(OC(F)(F)F)cc3)c(=O)c2c1OC	3.55 µM [rising, partial curve, poor fit]	
CCn1c(SCC(=O)Nc2ccc(C(C)=O)cc2)nc2nc3c(cc2c1=O)COC(C)(C)C3	0.282 µM [rising, full curve, poor fit]	
Cc1ccc(C(=O)c2cnc3ccccc3c2-c2ccccc2)cc1	14.1 µM [falling, partial curve, poor fit]	
Cc1ccc(CC2S/C(=C(/C#N)C(=O)N3CCOCC3)N(c3ccccc3)C2=O)cc1 (stereo not drawn)	1.3 µM [falling, partial curve, poor fit]	
O=C(CCC1CCCCC1)NCc1ccc(F)cc1	0.231 µM [rising, full curve, poor fit]	
C/C(=C\C(=O)c1ccccc1)Nc1ccc(O)cc1	1.16 µM [rising, partial curve]	
O=C(NCCC(=O)N1CCCCCCC1)c1ccc(Cl)cc1	0.731 µM [rising, full curve]	
NNC(=S)NCc1ccco1	15.8 µM [falling, single point]	
C[C@H]1C(=O)N(C)CCN1Cc1cn(C)nc1-c1ccc(Oc2ccccc2)cc1	20 µM [rising, partial curve, poor fit]	
CC(C)CCOc1ccc(CO[C@@H]2[C@H]3OC(C)(C)O[C@H]3O[C@@H]2C(O)CO)cc1 (stereo partly drawn)		35.5 µM [falling, partial curve, poor fit]
Cc1cc(C)nc(SCc2nnc(SCC(=O)Nc3cc(C(F)(F)F)ccc3Cl)o2)n1	20.6 µM [rising, single point]	
Cc1nn(-c2ccc(C(=O)O)cc2)c(C)c1Cl	35.5 µM [falling, single point]	
COCc1cc(=O)n2[nH]cc(-c3ccsc3)c2n1	5.62 µM [rising, single point]	
COc1cccc(/C=C2/SC(=O)N(C)C2=O)c1OCc1ccc(C(=O)O)cc1	20 µM [falling, single point]	
Cc1ccccc1NCCNc1ccccc1C	29.1 µM [falling, partial curve, poor fit]	
C/C(=N\NC(=O)c1cc(O)ccc1O)c1cccc(NC(=O)c2cccc(Cl)c2)c1	10 µM [falling, partial curve, poor fit]	
COc1cc(/C=C2/SC(=S)N(Cc3ccccc3)C2=O)cc(Cl)c1O	35.5 µM [rising, single point]	
Cc1cc(N2CCOCC2)n2ncc(-c3ccccc3)c2n1	4.61 µM [falling, full curve, poor fit]	

Ordered by formula weight (high to low): 3 of the compounds above.
SMILES	AC50 [1]	AC50 [2]
COc1ccc(C(=O)N2CCc3ccc(NC(=O)c4ccccn4)cc3C2)cc1F	35.5 µM [falling, single point]	
COc1cccc(/C=C2/SC(=O)N(C)C2=O)c1OCc1ccc(C(=O)O)cc1	20 µM [falling, single point]	
Cc1ccccc1NCCNc1ccccc1C	29.1 µM [falling, partial curve, poor fit]	
